From US4987122A (Nycomed AS, priority 1986, dated 1991)
The same purity stands for every peptide and may come from a single statement.

Legend:
[1] = peptide synthesis; conditions: for step yield: coupling step
[2] = general procedure: Fmoc solid-phase peptide synthesis in flow; SASRIN resin (Bachem), preloaded with Fmoc amino acid; Fmoc amino acid OPFP esters, pGlu-OPCLP, HOBT as catalyst; conditions: whole synthesis, 214 nm, one disulfide bridge, sequence written open

Substance: (Fmoc-Glu(γ-OtBu)-Asp(β-OtBu)-Cys-Lvs(Nε-Boc)-OtBu)2
- step yield [1]: 77%

Substance: (Glu-Asp-Cys-Lys)2
- final HPLC purity ([1]; late stage modification step, 214 nm, one disulfide bridge, sequence written open): 100%

Substance: (pGlu-Asp-Asp-Cys-Lys)b 2
- final HPLC purity [2]: 100%

Substance: (pGlu-Glu-Cys-Lys)2
- final HPLC purity ([2]; run 1): 100%

Substance: (pGlu-Glu(γ-OtBu)-Asp(β-OtBu)-Cys-Lys(Nε-Boc)-OtBu)2
- step yield [1]: 59%
